The data set has as its system ct-DNA. The data set can be described thus: Thermal calf thymus DNA denaturation. Conditions: 100 μM, 37C, 24 hr; control 82.8 C.
For `O=S(=O)(O)c1cc2c(O)c(c1)Cc1cc(S(=O)(=O)O)cc(c1O)Cc1cc(S(=O)(=O)O)cc(c1O)Cc1cc(S(=O)(=O)O)cc(c1O)Cc1cc(S(=O)(=O)O)cc(c1O)Cc1cc(S(=O)(=O)O)cc(c1O)Cc1cc(S(=O)(=O)O)cc(c1O)Cc1cc(S(=O)(=O)O)cc(c1O)C2` [GI-2041], the “Tm value of ct-DNA” value is reported as 83 C.
To `COc1c2cc(S(=O)(=O)[O-])cc1Cc1cc(S(=O)(=O)[O-])cc(c1OC)Cc1cc(S(=O)(=O)[O-])cc(c1OC)Cc1cc(S(=O)(=O)[O-])cc(c1OC)Cc1cc(S(=O)(=O)[O-])cc(c1OC)Cc1cc(S(=O)(=O)[O-])cc(c1OC)Cc1cc(S(=O)(=O)[O-])cc(c1OC)Cc1cc(S(=O)(=O)[O-])cc(c1OC)C2.[Na+].[Na+].[Na+].[Na+].[Na+].[Na+].[Na+].[Na+]` [GI-2021] belongs 81.5 C.
The result for `O=S(=O)(O)c1cc2c(O)c(c1)Cc1cc(S(=O)(=O)O)cc(c1O)Cc1cc(S(=O)(=O)O)cc(c1O)Cc1cc(S(=O)(=O)O)cc(c1O)Cc1cc(S(=O)(=O)O)cc(c1O)Cc1cc(S(=O)(=O)O)cc(c1O)C2` [GI-2029] reads 82.3 C.

(Values after paper PMC2365111, “Cytotoxicity of Poly(Phenolic)Sulfonates and Their Sodium Salts in L1210 Lymphoid Leukemia Cells” (Metal-Based Drugs, 1998).)
